Some of the results follow.

Protein sequences, listed by entry. Tags and fused reporters are not part of them.
UniProt Q0JBA9, entry or part of it: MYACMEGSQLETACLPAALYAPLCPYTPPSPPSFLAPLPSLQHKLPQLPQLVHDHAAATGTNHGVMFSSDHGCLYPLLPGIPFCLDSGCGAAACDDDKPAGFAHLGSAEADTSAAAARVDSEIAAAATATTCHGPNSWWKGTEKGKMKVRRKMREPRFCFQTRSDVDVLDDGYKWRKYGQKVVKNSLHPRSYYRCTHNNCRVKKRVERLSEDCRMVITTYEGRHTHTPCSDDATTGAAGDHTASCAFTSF

From article PMC7819943, “Rice protein-binding microarrays: a tool to detect cis-acting elements near promoter regions in rice” come the findings set out here.

The target in this experiment is OsWRKY34 (Oryza sativa, UniProt Q0JBA9 1-250). The experiment can be described thus: protein-binding microarray (RPBM); PBS, 2% BSA, 51.3 ng/ul salmon testes DNA, 50 uM zinc acetate, 200 nM TF, 25 C, 1 h; high values mean tight binding. The settings on record: protein: recombinant; tags: N-terminal polyhistidine and DsRed monomer fusion (pET32a); label: CyDye5-dUTP incorporated in the synthesized complementary strand; 3' TTTTT single-stranded linker to array surface; dsDNA, one strand shown. The method, boiled down: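 Using Ni–NTA, transcription factors fused N-terminally to polyhistidine and DsRed were purified after expression in E. coli BL21-CodonPlus. These were incubated at 200 nM with a blocked, double-stranded custom Agilent array for 1 h at 25 °C in a buffer containing 50 µM zinc acetate, and the array was washed. The binding signal is per-feature fluorescence intensity (arbitrary units) on an Axon 4000B scanner.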
For “CTGTAAAGTTTTATTTATATCGTGCTTTAACTTTTGATTGCGGAGTCACCTAGTGCAG”, the binding signal was 8410 fluorescence intensity (a.u.).
For “TCTTGTGTACATATATGTCATTTAGGGCCAAATCAATACACGGAGTCACCTAGTGCAG”, the binding signal was 8420 fluorescence intensity (a.u.).
Regarding “TTTTGCTGTGGTGGGAGTGGATTTGGAGGGCGTATCGGGGCGGAGTCACCTAGTGCAG”, the binding signal was 15600 fluorescence intensity (a.u.).
For “ACCTGATCATCATGCACGCACCTAGCTTAGCTTAGCTGTCCGGAGTCACCTAGTGCAG”, the binding signal was 8060 fluorescence intensity (a.u.).
For “TCCTCTTCTGTTTTTCTGTTTTTTTTCGTTTCTCTTCCCTCGGAGTCACCTAGTGCAG”, the binding signal was 13300 fluorescence intensity (a.u.).
The same measure for “GTGAAGGTTGTATTTGCGTGGATTGGAGGGGAAGCAGTGACGGAGTCACCTAGTGCAG”: 9290 fluorescence intensity (a.u.); for “CATTCTCTAATCTTCCTTCCACCATTGCCTTTTGATCTTCCGGAGTCACCTAGTGCAG”: 10100 fluorescence intensity (a.u.).
With “GGTTCATTTATACTTATTGCTTGTGTTTAGTTACAGGATACGGAGTCACCTAGTGCAG”, the binding signal was 9240 fluorescence intensity (a.u.).
In the case of “AGATTACGCCGTTAACTTTTTCTCACATGTTTGACCATTCCGGAGTCACCTAGTGCAG”, the binding signal is 11000 fluorescence intensity (a.u.).
As to “AGATACTATCCTTGAATTTGATCTCTGCCTTTTCATATTACGGAGTCACCTAGTGCAG”, the binding signal was 9410 fluorescence intensity (a.u.).
The same measure for “AGAGTTTTTTTTTTCTTTGAAGTTTGGTCAAGTTTTTTCACGGAGTCACCTAGTGCAG”: 8580 fluorescence intensity (a.u.).
As for “TGCTCTGGATGTCTTCTTTTTGCGGGCTTTGAATGTTGGGCGGAGTCACCTAGTGCAG”, the figure is 8540 fluorescence intensity (a.u.); as for “ATCGTGGACTTCTCTTAATCCCATCACCACCACTACCCGCCGGAGTCACCTAGTGCAG”, 10000 fluorescence intensity (a.u.).
On to “GATTACATTTTTCAAACATTTTCGCTTTCGATCCACAGCTCGGAGTCACCTAGTGCAG”, for which the binding signal is 9790 fluorescence intensity (a.u.).
As for “ATGTAAGTCATTCTAGCATTTCCCACATTTATATTGATGCCGGAGTCACCTAGTGCAG”, the figure is 9580 fluorescence intensity (a.u.).
On to “TAATACTTTATGCGTGACTTATCTTTTTAAATTTTTTTCACGGAGTCACCTAGTGCAG”, for which the binding signal is 8970 fluorescence intensity (a.u.).
Turning to “TGCATAACTTGTACCGTCCTGACAATATACCGTTTCATAGCGGAGTCACCTAGTGCAG”, the binding signal was 8440 fluorescence intensity (a.u.).
As to “CTTCTGGGAGACTGCTCGTTCTTTCGTACGACTCGTCATTCGGAGTCACCTAGTGCAG”, the binding signal was 9760 fluorescence intensity (a.u.).
“GCGCTGCGTCTTTTGACCAACCCAGTCGTTGACCCAAGACCGGAGTCACCTAGTGCAG”: the binding signal was 13900 fluorescence intensity (a.u.).
In the case of “TCGTTTCAAAATACTTGACACCGTTGACTTTTTAGTACGTCGGAGTCACCTAGTGCAG”, the binding signal was 23300 fluorescence intensity (a.u.).
“TCTCAACTCAGGGATGTCCTATTTTCTTCAGTCATACTACCGGAGTCACCTAGTGCAG”: the binding signal is 8200 fluorescence intensity (a.u.).
Consider “CTACTTTTCTACTTTATTTATGTCTTATTATAGAGTGACACGGAGTCACCTAGTGCAG”, for which the binding signal was 8280 fluorescence intensity (a.u.).
As for “GGCGGTATCGACGAAGAATCTCGGGGCGGTGGGGAGGTTTCGGAGTCACCTAGTGCAG”, the binding signal was 17700 fluorescence intensity (a.u.).
In the case of “ATTATGTGTTGCATGCCTCTTGCTTGTCATTCTTTACGATCGGAGTCACCTAGTGCAG”, the binding signal was 12000 fluorescence intensity (a.u.).
As for “GTGGGTGTCTGTGTCTTTGAGTAGTCGTCATTCAATCGAGCGGAGTCACCTAGTGCAG”, the figure is 9400 fluorescence intensity (a.u.); as for “ACGTCGCTATTCTTTTGCAACCACGATCCCACGTTCCCATCGGAGTCACCTAGTGCAG”, 10700 fluorescence intensity (a.u.).
“CTCTGTCCGTCCATTCACCCATCCATGTCCATCCATCTATCGGAGTCACCTAGTGCAG”: the binding signal was 11000 fluorescence intensity (a.u.).
Regarding “CCACCTCATTTCATCTTAGCTCTTCATTCATTTTCATTTTCGGAGTCACCTAGTGCAG”, the binding signal was 8630 fluorescence intensity (a.u.).
“TGTGGATGGCGGGGCGAGGCGGAATGGGGCGAATGCGGCGCGGAGTCACCTAGTGCAG”: the binding signal was 8240 fluorescence intensity (a.u.).
Take “GCACACTCGTCCGCTTCCGTCTCATTCTCTCGTGGACGCGCGGAGTCACCTAGTGCAG”: the binding signal is 9950 fluorescence intensity (a.u.).
Regarding “AAAGCCACCACACTCCCTCGCTGACCCCAGTGGAGCTGCTCGGAGTCACCTAGTGCAG”, the binding signal was 8390 fluorescence intensity (a.u.).
Turning to “CCGCACCTCTCCATCCTACCGCCGCTCGCGCCCCTCTCGCCGGAGTCACCTAGTGCAG”, the binding signal is 8750 fluorescence intensity (a.u.).
As to “CAGTTTGTACCATATATATATCACAGATTATTCACAGCATCGGAGTCACCTAGTGCAG”, the binding signal is 8100 fluorescence intensity (a.u.).
With “GGTGGTGGTTGAGGTTGAGGTTGACGAGGGGTTCTAGGGTCGGAGTCACCTAGTGCAG”, the binding signal is 9040 fluorescence intensity (a.u.).
For “AAGCCAGTGAATGCCTCTGTAACTTTTCTTTATTATTCTTCGGAGTCACCTAGTGCAG”, the binding signal is 8680 fluorescence intensity (a.u.).
As for “GACGAGCCTTATCTCCAATCCGGATTACACATCGCGTCGCCGGAGTCACCTAGTGCAG”, the figure is 10800 fluorescence intensity (a.u.); as for “CCGTACAACATTAACTCCACCGCCGCCTCCTTTCTTTCCTCGGAGTCACCTAGTGCAG”, 9250 fluorescence intensity (a.u.); as for “CTCCAGGTCTCCCACCCGTTGACCCGAGCTCCCCTACTCTCGGAGTCACCTAGTGCAG”, 11000 fluorescence intensity (a.u.).
Turning to “GTTAAAACTCTACCTACTTAATTAAGTATTTGCTATTTTTCGGAGTCACCTAGTGCAG”, the binding signal is 8700 fluorescence intensity (a.u.).
Take “CATCTACAGGTAATCTATATTAAACCCTGGCTATTGAGAACGGAGTCACCTAGTGCAG”: the binding signal is 8340 fluorescence intensity (a.u.).
Turning to “GTTGAGGTGGTCGGTAGCTAGGTAGCTAGGCGCGCGCGGCCGGAGTCACCTAGTGCAG”, the binding signal was 8160 fluorescence intensity (a.u.).
As for “GCTCACCAAACGCATCGCATGGCCCACTTATTTCCGACCACGGAGTCACCTAGTGCAG”, the binding signal was 8830 fluorescence intensity (a.u.).
